{"source": "the supplement of paper PMC10338343", "note": "± gives the standard deviation. Only a part is listed here, and it is no random draw. Many entries were measured with a wide error.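 Also: 1 nM active piRISC with 0.1 nM target library at 33 °C single turnover.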"}
{"system": "MIWI (PIWIL1) piRISC loaded with Kctd7 piRNA (30 nt)", "assay": "pre-steady-state target cleavage rate (min^-1); MIWI and MILI are mouse PIWI proteins and EfPiwi is from a freshwater sponge; tags in brackets are library labels; higher = faster piRNA-guided slicing of the target", "settings": "guide: Kctd7 piRNA 5'p-UGUUAAUCUCUCAGAGAAGGUGACAGUGAU; auxiliary factor: 500 nM mouse GTSF1", "summary_of_the_method": "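A burst-and-steady-state fit was used to obtain the pre-steady-state cleavage rate. The input data were sequencing reads of uncleaved targets, normalised to depth and to weakly complementary targets, from a […] transcribed, DNA-blocked target RNA library mixed with 1 nM active affinity-purified piRISC holding one synthetic guide, with or without 500 nM GTSF1 partner protein, in HEPES–potassium acetate buffer at 33 °C for 0–8 or 0–960 min. Three trials were pooled and k3 was capped at 0.0001 min^-1.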"}
{"sequence": "AUCACUGUCACCUUCUCCUGAGAGAUUAACA", "pre-steady-state target cleavage rate": "0.645 ± 0.17"}
{"sequence": "UACACUGUCACCUUCUCUCUGAGAUAUUGA", "pre-steady-state target cleavage rate": "0.00257 ± 0.0056"}
{"sequence": "UAGUGACAGUCCUUCUGUGAGAGAUUAUGA", "pre-steady-state target cleavage rate": "0.000671 ± 0.0093"}
{"sequence": "UAGUGUGUCACCUUCUCACUGAGAUUUUGA", "pre-steady-state target cleavage rate": "0.000731 ± 0.015"}
{"sequence": "UACACUGUCACCUUCUCUGAGUCUAAUUGA [g10:g28:cont:t1A]", "pre-steady-state target cleavage rate": "0.000914 ± 0.011"}
{"sequence": "UAGUGACUCACCUUCUCUCACAGAUUAACA", "pre-steady-state target cleavage rate": "0.00108 ± 0.0078"}
{"sequence": "UAGACUGUCACCUUCUCUGACUGAUUAAGA", "pre-steady-state target cleavage rate": "0.000122 ± 0.014"}
{"sequence": "UUCACUGUCACGCUUCUCUGAGAGAUUAACA", "pre-steady-state target cleavage rate": "0.51 ± 0.02"}
{"sequence": "UAGUGACAGUGGAAGAGACUCAGUUUAACA", "pre-steady-state target cleavage rate": "0.000705 ± 0.0071"}
{"sequence": "UAGUGACAGUCGUUCUCUGAGAGAUUAUCA", "pre-steady-state target cleavage rate": "0.00133 ± 0.0081"}
{"sequence": "UAGUGACAGACCUUCUGAGAGAGAUUAACA", "pre-steady-state target cleavage rate": "0.00209 ± 0.0051"}
{"sequence": "UAGUGACAGUCCUUCUCUGACUCAUUAAGA", "pre-steady-state target cleavage rate": "0.000371 ± 0.02"}
{"sequence": "UAGUGACACACCAACUCUGAGAGAUUAUGA", "pre-steady-state target cleavage rate": "0.000459 ± 0.012"}
{"sequence": "UAGUGACUCACCUUCUGACAGAGAUAUUGA", "pre-steady-state target cleavage rate": "0.000291 ± 0.024"}
{"sequence": "UACACUGUCACCUUCUCUGAGUGAUUAUGA", "pre-steady-state target cleavage rate": "0.00384 ± 0.0056"}
{"sequence": "UAGUCUGACACCUUGUCUGAGAGAUUAACA", "pre-steady-state target cleavage rate": "0.164 ± 0.022"}
{"sequence": "UAGUGACAGACCUUCUCUGAGUGUUUAACA", "pre-steady-state target cleavage rate": "0.00143 ± 0.0073"}
{"sequence": "UUCACUGUCAACUUCUCUGAGAGAUUAACA", "pre-steady-state target cleavage rate": "0.668 ± 0.028"}
{"sequence": "UAGUGAGUCUGGUUCUCUGAGAGAUUAUGA", "pre-steady-state target cleavage rate": "0.000116 ± 0.068"}
{"sequence": "UAGACUGUCACCUUCUCACAGAGAUUAAGA", "pre-steady-state target cleavage rate": "0.00249 ± 0.0032"}
{"sequence": "UAGUGACAGACCUUCUCUGAGUAGAUUAACA", "pre-steady-state target cleavage rate": "0.00111 ± 0.0099"}
{"sequence": "UAGUGACAGUGGAAGAGAGAGACAUUAACA", "pre-steady-state target cleavage rate": "0.000216 ± 0.04"}
{"sequence": "UAGUGACAGUGGCUCUCUGAGAGAUUAACA", "pre-steady-state target cleavage rate": "0.000165 ± 0.02"}
{"sequence": "UAGACUGUUACCUUCUCUGAGAGAUUAACA", "pre-steady-state target cleavage rate": "0.745 ± 0.039"}
{"sequence": "UUUCACUGUCACCUUCUCUGAGAGAUUAACA", "pre-steady-state target cleavage rate": "0.415 ± 0.04"}
{"sequence": "UAGUGACAGUCCUUCUCUGAGAGAUUUUGA", "pre-steady-state target cleavage rate": "0.000247 ± 0.018"}
{"sequence": "UAGUGAGUCACCAACUCUGAGAGAUAUUGA", "pre-steady-state target cleavage rate": "0.00101 ± 0.0093"}
{"sequence": "UAGUGACAGUCGAUCUCUGAGAGAUUAACA", "pre-steady-state target cleavage rate": "0.00123 ± 0.0043"}
{"sequence": "UAGUGACUCACCUUCUCUCAGAGAUAAACA", "pre-steady-state target cleavage rate": "0.0156 ± 0.0032"}
{"sequence": "UUCACUGUCAGCUUCUCUGAGAGAUUAUCA", "pre-steady-state target cleavage rate": "0.24 ± 0.027"}
{"sequence": "UAGUGACAGACCUUCUGAGAGAGAUUAAGA", "pre-steady-state target cleavage rate": "0.000479 ± 0.017"}
{"sequence": "UAGUGCGUCACCUUCUCUGAGAGAUUAACA", "pre-steady-state target cleavage rate": "0.623 ± 0.04"}
{"sequence": "UAGUGAGUCACCUUCUGACUCUCUAAUUGA [g15:g24:cont:t1A]", "pre-steady-state target cleavage rate": "0.00048 ± 0.02"}
{"sequence": "UAGUGACAGACCUUCUGCUGAGAGAUUAACA", "pre-steady-state target cleavage rate": "0.000242 ± 0.024"}
{"sequence": "UAGUGACAGUCCAUCUCUGAGAGUUUAACA", "pre-steady-state target cleavage rate": "0.00295 ± 0.0034"}
{"sequence": "UAGACUGUCACGUUCUCUGAGAGAUUUUGA", "pre-steady-state target cleavage rate": "0.000602 ± 0.011"}
{"sequence": "UAGUGACAGUGCUUCUCUGAGAGAAUUACA", "pre-steady-state target cleavage rate": "0.000243 ± 0.021"}
{"sequence": "UAGUGACAGUGGAACUCUGAAGAUUAACA", "pre-steady-state target cleavage rate": "0.000452 ± 0.026"}
{"sequence": "UAGUGACAGUGGAUCUCUGACACAUUAACA", "pre-steady-state target cleavage rate": "0.000143 ± 0.023"}
{"sequence": "UAGACUGUCACCUUCUCUGACUCAUAUUGA", "pre-steady-state target cleavage rate": "0.000136 ± 0.016"}
{"sequence": "UAGACUGUCACCUUCUCUCUCAGAUUAAGA", "pre-steady-state target cleavage rate": "0.000138 ± 0.017"}
{"sequence": "UAGACUGUCACCUUCUCUGAGUGAUUAUGA", "pre-steady-state target cleavage rate": "0.000903 ± 0.0058"}
{"sequence": "UAGUGACAGAGCAUCUCUGAGAGAUUAACA", "pre-steady-state target cleavage rate": "0.00106 ± 0.0054"}
{"sequence": "UAGUGACAGUCGUUGUCUGAGAGAUUAACA", "pre-steady-state target cleavage rate": "0.000545 ± 0.01"}
{"sequence": "UAGUGACAGUCCUUCUCUGAGAGUUUAUCA", "pre-steady-state target cleavage rate": "0.00111 ± 0.0049"}
{"sequence": "UAGUGACACACCUUCUCUGAGGAUUAACA", "pre-steady-state target cleavage rate": "0.00258 ± 0.0044"}
{"sequence": "UAGUGACAGUGGAAGAGACAGAGAUUUAACA", "pre-steady-state target cleavage rate": "0.000218 ± 0.032"}
{"sequence": "UAGUCUGUCACCUUGACUGAGAGAUUAUGA", "pre-steady-state target cleavage rate": "0.000804 ± 0.008"}
{"sequence": "UAGUGACAGUGGUUCUCUGUGACAUUAACA", "pre-steady-state target cleavage rate": "0.000153 ± 0.024"}
{"sequence": "UAGUGACAGUGGAUUUCUGAGAGAUUAACA", "pre-steady-state target cleavage rate": "0.000104 ± 0.024"}
{"sequence": "UAGUGUCAGACCUUCUCUGAGAGAUUUUGA", "pre-steady-state target cleavage rate": "0.000567 ± 0.013"}
{"sequence": "UAGUGACACUCCUUCUCUGAGAGAUAUUGA", "pre-steady-state target cleavage rate": "0.00274 ± 0.0042"}
{"sequence": "UAGUGACUCUCCUUCUCUGAGAGAUUUUGA", "pre-steady-state target cleavage rate": "0.000935 ± 0.0086"}
{"sequence": "UAGUGAGUCACCUUCUCUGAGUCAUUAUGA", "pre-steady-state target cleavage rate": "0.00164 ± 0.0065"}
{"sequence": "UAGUGAGUGUGCUUCUCUGAGAGAUUAUGA", "pre-steady-state target cleavage rate": "0.00138 ± 0.0051"}
{"sequence": "UAGUGACUCACCUUCUCUGAGUGAUUAACA", "pre-steady-state target cleavage rate": "0.0244 ± 0.0052"}
{"sequence": "UAGUGACAGUGGAAGAGACUCAGAUUUACA", "pre-steady-state target cleavage rate": "0.000174 ± 0.011"}
{"sequence": "UAGUGUGUCACCUUCUCUGACAGAUUUUGA", "pre-steady-state target cleavage rate": "0.00198 ± 0.0068"}
{"sequence": "UAGUGACAGACCUUCUCUGAGACAUUUUGA", "pre-steady-state target cleavage rate": "0.000453 ± 0.018"}
{"sequence": "UAGUGAGUCACCUUCUCUGAGACAUAUUGA", "pre-steady-state target cleavage rate": "0.00295 ± 0.0039"}
{"sequence": "UUCACUGAUCACCUUCUCUGAGAGAUUAACA", "pre-steady-state target cleavage rate": "0.653 ± 0.052"}
{"sequence": "AUCACUGUCACCUUCUCUGAGACUAUAAGA", "pre-steady-state target cleavage rate": "0.0016 ± 0.0042"}
{"sequence": "UAGUGACAGUGGAAGAGACAGAGGAUUAACA", "pre-steady-state target cleavage rate": "0.000625 ± 0.011"}
{"sequence": "UAGUGAGUCACCUUCUGACAGAGAUUAACA", "pre-steady-state target cleavage rate": "0.00116 ± 0.01"}
{"sequence": "UAGUGACAGUCGUUCUCUGAGAGAUUUACA", "pre-steady-state target cleavage rate": "0.000612 ± 0.015"}
{"sequence": "UAGUGACAGUCCAUCUCAGAGAGAUUAACA", "pre-steady-state target cleavage rate": "0.00153 ± 0.0063"}
{"sequence": "UAGUGACACACCUUCUCUGAGAUGAUUAACA", "pre-steady-state target cleavage rate": "0.00345 ± 0.0036"}
{"sequence": "UAGUCUGUGACCUUCUGUGAGAGAUUAACA", "pre-steady-state target cleavage rate": "0.399 ± 0.028"}
{"sequence": "UAGACUGUCACCUUCUCUGACUCAUUAAGA", "pre-steady-state target cleavage rate": "0.000459 ± 0.01"}
{"sequence": "UAGUGACAGUCCUUCUCAGAGAGUUUAACA", "pre-steady-state target cleavage rate": "0.0044 ± 0.0027"}
{"sequence": "UAGUGACAGACCUUCUCUGAGUGAUUAAGA", "pre-steady-state target cleavage rate": "0.000858 ± 0.0077"}
{"sequence": "AUCACUCUCACCUUCUCUGAGAGAUUAACA", "pre-steady-state target cleavage rate": "0.551 ± 0.029"}
